From PMC9156947 come the findings set out here.

Amino acid sequences for entries named in this document (tags omitted).
UniProt O95793: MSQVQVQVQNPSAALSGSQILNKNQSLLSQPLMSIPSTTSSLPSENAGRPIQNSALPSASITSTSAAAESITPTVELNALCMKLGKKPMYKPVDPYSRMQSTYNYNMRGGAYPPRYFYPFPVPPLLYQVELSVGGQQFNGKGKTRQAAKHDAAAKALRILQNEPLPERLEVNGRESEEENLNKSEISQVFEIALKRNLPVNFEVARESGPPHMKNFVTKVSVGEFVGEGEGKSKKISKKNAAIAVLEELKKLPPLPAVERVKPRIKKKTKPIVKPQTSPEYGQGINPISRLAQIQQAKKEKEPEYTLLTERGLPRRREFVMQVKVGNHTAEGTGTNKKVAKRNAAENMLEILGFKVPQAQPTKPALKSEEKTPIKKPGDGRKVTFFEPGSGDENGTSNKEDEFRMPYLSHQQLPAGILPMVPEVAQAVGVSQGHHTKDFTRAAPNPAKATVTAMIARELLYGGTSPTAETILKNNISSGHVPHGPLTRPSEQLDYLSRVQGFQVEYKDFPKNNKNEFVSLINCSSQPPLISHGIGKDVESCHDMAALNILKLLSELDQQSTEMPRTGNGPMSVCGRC
UniProt Q12962: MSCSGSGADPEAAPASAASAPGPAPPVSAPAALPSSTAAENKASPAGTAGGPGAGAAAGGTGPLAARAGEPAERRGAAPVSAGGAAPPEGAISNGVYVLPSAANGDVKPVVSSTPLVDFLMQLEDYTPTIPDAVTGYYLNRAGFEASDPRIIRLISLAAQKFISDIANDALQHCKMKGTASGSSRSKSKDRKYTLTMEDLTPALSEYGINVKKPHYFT
UniProt O14929: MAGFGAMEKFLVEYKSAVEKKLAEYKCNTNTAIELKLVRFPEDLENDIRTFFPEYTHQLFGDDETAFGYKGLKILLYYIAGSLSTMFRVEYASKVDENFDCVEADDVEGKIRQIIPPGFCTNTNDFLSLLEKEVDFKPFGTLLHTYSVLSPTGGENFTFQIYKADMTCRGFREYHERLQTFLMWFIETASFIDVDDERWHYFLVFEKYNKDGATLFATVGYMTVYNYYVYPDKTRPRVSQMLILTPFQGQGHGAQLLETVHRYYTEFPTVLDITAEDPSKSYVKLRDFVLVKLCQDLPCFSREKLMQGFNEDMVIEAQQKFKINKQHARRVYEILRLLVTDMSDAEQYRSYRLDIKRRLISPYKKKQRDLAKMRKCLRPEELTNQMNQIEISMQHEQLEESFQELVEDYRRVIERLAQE

These are yes or no findings as the source states them, for the method shown. In cells and extracts the contact can be indirect. These calls come from enrichment with a bait or labelling near it, and not all partners need be listed.

For the experiment, the target named is 3Flag-STAU1 (UniProt O95793). As to the kind of experiment: affinity purification with mass spectrometry; 3flag-STAU1 transfected into HepG2 cells; proteins immunoprecipitated by anti-Flag antibody or IgG control analysed by mass spectrometry.

For “TAF10 (found by mass spectrometry in the anti-Flag IP) (from UniProt Q12962 1-218)”, the binding result is on record as “binds”.
Regarding “HAT1 (found by mass spectrometry in the anti-Flag IP) (from UniProt O14929 1-419)”, the binding result is given as “binds”.
